Two molecules from patent publication US20240042051A1, “MCL-1 INHIBITOR ANTIBODY-DRUG CONJUGATES AND METHODS OF USE” (Novartis AG, priority 2020, published 2024) can be followed below.

By UniProt entry, the sequences of proteins in these tests, tags left out. Where a name states a change or a piece, a line headed by the entry shows the natural chain unless it says otherwise. Chains listed by the source or under a name are the forms on record and can include a tag or linker.
hCD48EC:mouse-Ig construct #2250 (KKTGNE modified into KKDASG) (P09326, form named): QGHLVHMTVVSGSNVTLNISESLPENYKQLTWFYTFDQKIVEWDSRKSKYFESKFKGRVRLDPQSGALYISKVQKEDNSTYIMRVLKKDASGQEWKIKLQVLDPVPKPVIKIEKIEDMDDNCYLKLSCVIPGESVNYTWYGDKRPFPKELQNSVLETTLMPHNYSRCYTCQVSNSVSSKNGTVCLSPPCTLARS

These are yes or no findings as the source states them, for the method shown. Some results given as binding are weak or reduced against the parent protein; the word gives no strength.

The target in experiment [1] is Met-humanCD48 (aa29-130)-APP6-Avi-His (human). Put plainly: complex formation for crystallisation; structure solved at 2.38 Å.
The target in experiment [2] is hCD48EC:mouse-Ig construct #2250 (KKTGNE modified into KKDASG) (human) (UniProt P09326). The experiment is described as follows: ELISA with 1:10 diluted HEK293T supernatant of the mutated CD48-mouse IgG fusion, antibody at 500, 250 and 25 ng/ml.
For experiment [3] the target is unchanged. The experiment is described as follows: ELISA, HEK293T culture supernatant (1:10) with the CD48-mouse Ig construct, antibody at 25, 250 and 500 ng/mL, detection goat anti-mouse IgG (H+L) HRP, Mean OD450-570.

B1: NY938 (antibody, human IgG1, kappa, V domains shown)
VH: QVQLVQSGAEVKKPGASVKVSCKASGYTFTEYTMHWVRQAPGQGLEWMGGINPDTGDTSYNQKFTGRATLTVDKSTSTAYMELSSLRSEDTAVYYCARAQFWTTPRFAYWGQGTLVTVSS
VL: DIQMTQSPSSLSASVGDRVTITCKASQDVGTAVAWYQQKPGKVPKLLIYWASTRHTGVPSRFSGSGSGTDFTLTISSLQPEDVATYYCQQYSTYPITFGQGTKLEIKR
Take B1: in experiment [1], the binding entry was “binds”.

B2: humanized CD48A (antibody, V domains shown)
VH: QVQLVQSGSELKKPGASVKVSCKASGYTFTDFGMNWVRQAPGQGLEWMGWINTFTGEPSYGNVFKGRFVFSLDTSVSTAYLQISSLKAEDTAVYYCARRHGNGNVFDSWGQGTLVTVSS
VL: EIVLTQSPDFQSVTPKEKVTITCRASQSIGSNIHWYQQKPDQSPKLLIKYTSESISGVPSRFSGSGSGTDFTLTINSLEAEDAATYYCQQSNSWPLTFGGGTKVEIKR
B2: the binding result in experiment [2] and in experiment [3] was “binds” throughout.
